Drawing on PubChem BioAssay AID286 (DTP/NCI, 2004), this text covers T/C and survivor count for 17 compounds.

The test has as its system BDF1 mice, M5076 sarcoma ip, median survival T/C. The test can be described thus: NCI In Vivo Anticancer Drug Screen. Data for tumor model Sarcoma M5076 (intraperitoneal) in B6D2F1 (BDF1) mice. As to conditions: T/C endpoint: median survival time, higher T/C = longer survival. Here is the method:
The antitumor activity of compounds was measured in mice bearing transplantable tumors. Survival or tumor size were measured and the results are expressed as the measurement made in the treated group (T) divided by the measurement made in the vehicle treated control group (C). The tumor model used in this assay is Sarcoma M5076 (intraperitoneal) in B6D2F1 (BDF1) mice

The mark [1] stands for this setting: dose: 25.0 mg/kg/injection, schedule: Q04DX004 (ip), vehicle: saline.
[2] abbreviates: dose: 50.0 mg/kg/injection, schedule: Q04DX004 (ip), vehicle: saline.
Setting [3] is: dose: 50.0 mg/kg/injection, schedule: Q04DX005 (ip), vehicle: saline.
Setting [4] is: dose: 100.0 mg/kg/injection, schedule: Q04DX004 (ip), vehicle: saline.
The mark [5] stands for this setting: dose: 100.0 mg/kg/injection, schedule: Q04DX005 (ip), vehicle: saline.
Setting [6] is: dose: 200.0 mg/kg/injection, schedule: Q04DX004 (ip), vehicle: saline.
The mark [7] stands for this setting: dose: 24.0 mg/kg/injection, schedule: Q04DX005 (ip), vehicle: Klucel (hydroxypropylcellulose) (HPC).

The list does not hold the whole screen: it is rich in T/C values a quarter to a half above the control, in often repeated tests (any T/C) and in doses without a T/C. Other doses and runs of a compound stand elsewhere. T/C gives the treated animals as a percentage of the vehicle group. Some entries give survivors of the animals treated and no T/C: the source holds a T/C of zero for them, seemingly a mark for toxic or unscored doses. Some doses without a T/C left all or most animals alive at the check, yet need not have been tolerated: survival well below the control is almost never listed, so the zero probably covers shortened survival too. Survivors were counted at the toxicity check, usually on the fifth day, unless a day is given; later deaths do not show. Schedule codes are those of the source, read here as Q, the interval in days (D) or hours (H), X, the number of doses. Some entries were tested several times; the values are given in rising order. Where survival is the endpoint, the PubChem record calls one and a half times the control and up active, and a quarter to a half above the control has no call in these data; cut-offs in other NCI protocols can differ. Some T/C values are followed by the survivors on the day toxicity was checked, most often the fifth; without a count, all were alive then. Counts like (3×) give the number of equal values in this list. Starred links: 1 amine or outer side, 2 acyl side, 3 side chain; linkers in the order of their positions; H or OH if unused. Positions of bridges follow the written chain, without caps; N, C: chain ends. Non-standard residues stand in square brackets, D forms with d. Residues, ends and D or L forms follow the SMILES beside them. Chains are numbered I, II in the order given. ξ: configuration not given here. *: point of attachment. Quinaldoyl(3-OH,6-OMe) = COc1ccc2nc(C(=O)*)c(O)cc2c1; X1 = CCC(=O)OC1CC=NN([*:1])C1C(=O)[*:2]; X2 = CC(=O)OC1CC=NN([*:1])C1C(=O)[*:2]; ξNMeVal(3-OH) = CNC(C(=O)O)C(C)(C)O; Sar = CNCC(=O)O

As for `Cc1c2ccncc2c(C)c2c1[nH]c1ccccc12`, the T/C was 134 % of control (dose: 5.0 mg/kg/injection, schedule: Q04DX004 (ip), vehicle: saline with Tween-80); 139 % of control (dose: 10.0 mg/kg/injection, schedule: Q04DX004 (ip), vehicle: saline with Tween-80); 143 % of control (dose: 20.0 mg/kg/injection, schedule: Q04DX004 (ip), vehicle: saline with Tween-80). Also, the survivor count (dose: 160.0 mg/kg/injection, schedule: Q04DX004 (ip), vehicle: saline with Tween-80) is 8 of 8 on day 9.

For `CCCCCCCCCCCCCCCC(=O)O[C@@H]1[C@@H](C)[C@@]2(O)[C@@H](C=C(CO)C[C@]3(O)C(=O)C(C)=C[C@@H]23)[C@H]2[C@]1(OC(C)=O)[C@]2(C)CO`, the survivor count (dose: 500.0 micrograms/kg/injection, schedule: Q01DX009 (ip), vehicle: distilled water + Tween-80) is given as 5 of 10 on day 9 and the survivor count (dose: 1000.0 micrograms/kg/injection, schedule: Q01DX009 (ip), vehicle: distilled water + Tween-80) is 0 of 10 on day 9.

Consider `CN(C)C(=O)c1cccc(COc2ccc(N3C(N)=NC(N)=NC3(C)C)cc2Cl)c1`, for which the T/C reads like this: (dose: 6.25 mg/kg/injection, schedule: Q04DX004 (ip), vehicle: saline) 96, 101 (2×), 102 % of control; (dose: 6.25 mg/kg/injection, schedule: Q04DX005 (ip), vehicle: saline) 95 (2×), 99, 108 % of control; (dose: 12.5 mg/kg/injection, schedule: Q04DX004 (ip), vehicle: saline) 99, 101 (2×), 105 % of control; (dose: 12.5 mg/kg/injection, schedule: Q04DX005 (ip), vehicle: saline) 93, 95, 99, 109 % of control; under setting [1], 96, 101, 102 % of control; (dose: 25.0 mg/kg/injection, schedule: Q04DX005 (ip), vehicle: saline) 100, 102, 103, 116 % of control. For the same compound, the T/C runs as follows: under setting [2], 97, 102 [8 of 10 alive on day 9], 125 % of control; under setting [3], 97, 97 [9 of 10 alive on day 9], 99 % of control [9 of 10 alive on day 9]; under setting [4], 116 % of control; under setting [5], 100 % of control. The survivor count reads like this: under setting [1], 8 of 10 on day 9; under setting [2], 3 of 10 on day 9; under setting [3], 5 of 10 on day 9; under setting [4], 0 of 10 on day 9; under setting [5], 0 of 10 on day 9.

`CC[C@](O)(C(=O)O)c1cc2n(c(=O)c1CO)Cc1cc3ccccc3nc1-2`: the T/C under setting [1] was 128 % of control and the T/C under setting [2] is 140 % of control [9 of 10 alive on day 14]. The survivor count reads like this: under setting [4], 2 of 10 on day 14; under setting [6], 0 of 9 on day 14.

As to `CC1CCC(NC(=O)N(CCCl)N=O)CC1` (stereo not given), the T/C is 143 % of control [9 of 10 alive on day 9] (dose: 3.0 mg/kg/injection, schedule: Q04DX004 (ip), vehicle: Klucel (hydroxypropylcellulose) (HPC)); 119, 142, 186, 200 % of control (dose: 3.0 mg/kg/injection, schedule: Q04DX005 (ip), vehicle: Klucel (hydroxypropylcellulose) (HPC)); 175, 183, 295, 320 % of control [9 of 10 alive on day 9] (dose: 6.0 mg/kg/injection, schedule: Q04DX005 (ip), vehicle: Klucel (hydroxypropylcellulose) (HPC)); 157, 216, 233, 320 % of control (dose: 12.0 mg/kg/injection, schedule: Q04DX005 (ip), vehicle: Klucel (hydroxypropylcellulose) (HPC)); 102, 216, 320 % of control under setting [7]. Besides, the survivor count under setting [7] is recorded as 10 of 10 on day 9.

Turning to `COC1CC(C)C(OC)C2=CC(=O)C=C(NC(=O)/C(C)=C/C=C\C(C)C(OC(N)=O)/C(C)=C\C(C)C1OC)C2=O` (stereo not given), the survivor count (dose: 25.0 mg/kg/injection, schedule: Q04DX004 (ip), vehicle: saline + Tween-80 + alcohol) is reported as 3 of 10 on day 14; the survivor count (dose: 50.0 mg/kg/injection, schedule: Q04DX004 (ip), vehicle: saline + Tween-80 + alcohol) is on record as 0 of 10 on day 14; the survivor count (dose: 100.0 mg/kg/injection, schedule: Q04DX004 (ip), vehicle: saline + Tween-80 + alcohol) is on record as 0 of 10 on day 14.

Consider `S=c1nc[nH]c2nc[nH]c12`, for which the T/C runs as follows: (dose: 40.0 mg/kg/injection, schedule: Q04DX005 (ip), vehicle: alkali diluted with saline) 131 % of control [7 of 8 alive on day 17]; (dose: 160.0 mg/kg/injection, schedule: Q04DX005 (ip), vehicle: alkali diluted with saline) 141 % of control. Further, under “dose: 320.0 mg/kg/injection, schedule: Q04DX005 (ip), vehicle: alkali diluted with saline”, the survivor count was 7 of 8 on day 17.

With `C[C@@](O)(/C=C/[C@H]1CC=CC(=O)O1)[C@@H](C[C@@H](O)\C=C/C=C\C=C\CO)OP(=O)(O)O`, the T/C (dose: 16.0 mg/kg/injection, schedule: Q01DX009 (ip), vehicle: water) is 127 % of control.

For the compound `COC1N(C2CC(O)C(CO)O2)C(=O)NC(=O)C1(F)Br` (stereo not given), the T/C under setting [6] was 126 % of control.

With `CN=C(N)N/N=C(\C)c1ccc2sc3ccc(/C(C)=N/NC(N)=NC)cc3c2c1`, the T/C (dose: 400.0 mg/kg/injection, schedule: Q04DX004 (ip), vehicle: saline with Tween-80) is 130 % of control. Where the note is “dose: 800.0 mg/kg/injection, schedule: Q04DX004 (ip), vehicle: saline with Tween-80”, the survivor count was 3 of 10 on day 14.

Consider `CCN(CC)CCCNc1nccc2c(C)c3[nH]c4ccncc4c3cc12`, for which, under “dose: 20.0 mg/kg/injection, schedule: Q04DX004 (ip), vehicle: other”, the survivor count is on record as 4 of 8 on day 9.

Consider `CN(C)CCN1C(=O)c2cccc3cc(N)cc(c23)C1=O`, for which, for the setting “dose: 36.0 mg/kg/injection, schedule: Q04DX004 (ip), vehicle: acid diluted with saline”, the T/C is 139 % of control. Further, the survivor count (dose: 72.0 mg/kg/injection, schedule: Q04DX004 (ip), vehicle: acid diluted with saline) is recorded as 5 of 10 on day 14.

With `O=C1C2C3C=CC(C2C(=O)N1CO)C1C2C(=O)N(CO)C(=O)C2C31` (stereo not given), the survivor count reads like this: (dose: 100.0 mg/kg/injection, schedule: Q04DX004 (ip), vehicle: water) 5 of 9 on day 14; (dose: 200.0 mg/kg/injection, schedule: Q04DX004 (ip), vehicle: water) 0 of 10 on day 14.

As to `CCC(=O)OC1CC=NN2C(=O)C(NC(=O)c3nc4ccc(OC)cc4cc3O)COC(=O)C(C(C)(C)O)N(C)C(=O)CN(C)C(=O)CNC(=O)C3C(OC(C)=O)CC=NN3C(=O)C(NC(=O)c3nc4ccc(OC)cc4cc3O)COC(=O)C(C(C)(C)O)N(C)C(=O)CN(C)C(=O)CNC(=O)C12` (stereo not given) (I: {Quinaldoyl(3-OH,6-OMe)}-S[X1]G[Sar][ξNMeVal(3-OH)] / II: {Quinaldoyl(3-OH,6-OMe)}-S[X2]G[Sar][ξNMeVal(3-OH)]; ester I:1-II:C, I:C-II:1; configuration not given here), the T/C (dose: 18.75 micrograms/kg/injection, schedule: Q01DX009 (ip), vehicle: DMSO) was 136 % of control. In addition, the survivor count by setting is: (dose: 150.0 micrograms/kg/injection, schedule: Q01DX009 (ip), vehicle: DMSO) 5 of 10; (dose: 300.0 micrograms/kg/injection, schedule: Q01DX009 (ip), vehicle: DMSO) 0 of 10 and 0 of 10 on day 9.

Regarding `CN(C)c1nc(N(C)C)nc(N(C)C)n1`, the T/C (dose: 50.0 mg/kg/injection, schedule: Q04DX005 (ip), vehicle: Klucel (hydroxypropylcellulose) (HPC)) was 147 % of control. Further, the survivor count by setting is: (dose: 320.0 mg/kg/injection, schedule: Q04DX005 (ip), vehicle: Klucel (hydroxypropylcellulose) (HPC)) 3 of 8 on day 17; (dose: 640.0 mg/kg/injection, schedule: Q04DX005 (ip), vehicle: Klucel (hydroxypropylcellulose) (HPC)) 0 of 8 on day 17.

With `Nc1n[nH]c2ccccc12`, the survivor count (dose: 400.0 mg/kg/injection, schedule: Q04DX004 (ip), vehicle: acid diluted with saline) is 6 of 10 on day 14 and the survivor count (dose: 800.0 mg/kg/injection, schedule: Q04DX004 (ip), vehicle: acid diluted with saline) is listed as 0 of 10 on day 14.

As to `N#CC(C#N)=NNc1ccc2cn[nH]c2c1`, where the note is “dose: 200.0 mg/kg/injection, schedule: Q04DX004 (ip), vehicle: Klucel (hydroxypropylcellulose) (HPC)”, the survivor count is 6 of 10 on day 14.
